The source of these data is PubChem BioAssay AID1347423 (Functional Genomics Laboratory (NCATS/FGL), 2020).

The campaign covered roughly 52,000 sequences. About 210 (0.4%) were called active.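 The calls were made as follows: active = gene whose silencing raises cell survival under the drug, median off-target-corrected z-score across its silencing RNAs 2 or more; inactive = the rest.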 Some of the results follow.

The test can be described thus: Resistance to Poly (ADP-Ribose) Polymerase inhibitor: Gene Identification via Genome-wide siRNA Screen. To be noted: mouse BRCA2 R2336H ES cells, olaparib, CellTiter-Glo viability; stronger effect = higher value. The procedure, abridged: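 Mouse BRCA2 R2336H ES cells were reverse-transfected with siRNA (20 nM final), treated at 48 h with 500 nM olaparib, and read by CellTiter-Glo after 72 h. Scores: MAD-based z per siRNA, median per gene, seed off-target correction.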
Background: Cellular ATP, detected with luciferase, serves as a proxy for viable cell number.
Consider CCAAAUCGCUUCACAUAAUTT against Atp6v1g2, for which the z-score is inactive: -1.14. GGAUCUGAAACAAAAACACTT against Slc8a3: the z-score is inactive: 0.29.

For the sequence GGCGACUCCAUCUAAACAATT against Slitrk5, the z-score is inactive: 0.518.

Take CCAUUCCGGUUACUUUCGATT against Hspb1: the z-score is inactive: -0.563.

As to CCCAAUGAUCCUAACCAUUTT against Zfp459, the z-score was inactive: 1.38. With “GGGAUGAGUCUUUAAAAUCTT against 4930417G10Rik” the figure was inactive: -0.263. Take GGGAUCCUUAAUAUUUUGATT against Dazap2: the z-score is inactive: 0.012. For “CCUCACCCUUUCCAAAAAATT against 1810060D16Rik”, the z-score is inactive: 1.35.

Take CGACCUGACUUUUCUUAGGTT against Dncl2b: the z-score is inactive: -0.14. Turning to GGAUGUUACCUUGGUGGGUTT against Olfr1323, the z-score is inactive: -2.02. Under “GCAUCAGAUAGAGAUUGCUTT against C730036D15Rik” stands inactive: -1.95. Take “GGCUUUUAAGUUCAUCGCATT against 2810012G03Rik”: the z-score was inactive: -0.859. Under “GCAAGUCUCUGCGCUAUUATT against 4931417E11Rik” stands inactive: -1.38; under GGAUCAUCCAAGUGUUCCGTT against Olfr555, inactive: 0.433. With GGAUGCUGUGAGAAGAACUTT against Olfr1416 the figure was inactive: -0.168; with GGAAACCUCAUACAAAACATT against Tex14, inactive: 0.202.

Turning to “GGUCUAAGGCAUGGGUCAATT against 2010001J22Rik”, the z-score is inactive: -0.866. With GGUUUCUUUCUCUGAGUUUTT against Man2a1 the figure was inactive: 0.572.

On to GGCAACAAGAGCUUUACUCTT against Gabrp, for which the z-score was inactive: 0.0907.

GGAGAAAAUAACUUGUUUCTT against Ssr3: the z-score was inactive: 0.639. As to GCCUACAUAACCUUAAUAUTT against Slc4a10, the z-score is inactive: 0.0349. For the sequence GCACUGUAACAGCGAGUUATT against Tdgf1, the z-score is inactive: -0.233.

With CGUUAAAUGGCAGUACAGATT against Qk, the z-score is inactive: 1.03. As for CGAGAUAGACCGAAAACUGTT against Rad54l, the z-score is inactive: 2.39.

As for GGGCUGUCUCAAUGAGAUGTT against Iigp5, the z-score was inactive: 0.564. Under GGAAACCGUUCUCAUUAAATT against Mrpl30 stands inactive: -0.327. Take GCUGUAAGCUACCGUCUGUTT against Panx2: the z-score was inactive: 0.276.

For GCUAAUCAACAUCUACUUGTT against Nmt2, the z-score was inactive: 0.699. Under GUACAAAGCCUUUAAAGAUTT against Ang3 stands inactive: 1.79; under GCGGAAAAACAACUGCCAUTT against DXImx46e, inactive: 0.665; under GGUUACCAGUAUGUCUUAGTT against Cryba2, inactive: -1.91. With “CCUAAACAAGAUGACGACATT against 1300002A08Rik” the figure was inactive: -0.0482; with GCACUGGUGGACAGAUUCUTT against Col3a1, inactive: 1.79. Turning to GGAGAAGUAAUGACAAAUUTT against Foxp4, the z-score was inactive: -0.525. As for UGGCAAAAAGGUGAUAACUTT against Hbb-b2, the z-score was inactive: 0.357. With GCUAUUUGGUACCCUUUGATT against Olfr600 the figure was inactive: -3.27; with UUCACUGUAAGAAUUGUCUTT against V1rd21, inactive: 0.342. Under GGUGAAAUAUGCAGUAAAATT against Adam18 stands inactive: -1.12.

As for “GGCUUUAGCUAAAGAAGAUTT against A830093I24Rik”, the z-score is inactive: -0.182.

With GGAAUGUGGGAAUAUUUACTT against Zfp59, the z-score was inactive: 0.159. With CCGUUCUUCAUAUGAGCUCTT against Olfr164 the figure was inactive: 0.329.

With GCGGAAGGCACAGAUAGAATT against Ccdc2, the z-score was inactive: 1.37. Regarding GGAUUUGCCCAAAAUAAAATT against Nap1l5, the z-score was inactive: 1.4. Regarding GGAUGAUCGGCACUAUAACTT against BC087945, the z-score is inactive: -0.933. In the case of GGAUCACUUUAUUUGCUAGTT against Btg1, the z-score was inactive: 0.108.

Take “CGGAUUAUGAGGGACAAGCTT against 2610037M15Rik”: the z-score is inactive: 1.34.

With “GGAUAUCCGAGGUGCUGUATT against 2410004H02Rik”, the z-score was inactive: 0.689. Under GGUUUACAAUGAGAUAGUUTT against Lipf stands inactive: -0.114. As for GGAGGUGAAAGGCAAAACUTT against Poldip2, the z-score is inactive: -0.481. With “GAGUCUUACAUCAAGAAGATT against 9230106D20Rik” the figure was inactive: 0.855; with GGAGACCUAUGAGGUAUUUTT against Ckmt1, inactive: -0.00508. Consider “GGAAAAGACUAACGAGCGGTT against 1110030J09Rik”, for which the z-score was inactive: 0.0624. With GCUAUGCUACUAAGCAUUCTT against Bmp8b, the z-score was inactive: -0.657. As to “GGAAAAUCUACUGUUUCCCTT against 4933425F06Rik”, the z-score is inactive: 0.499. Under GGACUCAGGCCAAGAAAGATT against Rrs1 stands inactive: -0.245; under GGAUGCUGUCCAACUGGAUTT against Plxnb2, inactive: 0.289; under CGGCCUCUCGAAUCGAUAUTT against Usp19, inactive: -0.792. For the sequence GGCUCAAUAAUGUUUUCAATT against Smpd3, the z-score is inactive: 0.44. Take CGAGCUUUGCACUUACUAUTT against Vtn: the z-score was inactive: 1.08. As for “GCUAUCUCUCUUUUCAACATT against 4732465J04Rik”, the z-score is inactive: 0.241. With CCCUCAUGGUACCUUGGCATT against Slc7a4 the figure was inactive: -0.533.

Take CCUAUUGUAGCAAGUUACATT against Hist1h3f: the z-score is inactive: 0.45. Take GGGUAUAUUUGGAACUACGTT against Pyp: the z-score is inactive: -0.212.

For the sequence GCAGUAAGCUUUUGCUAAATT against Zfp334, the z-score was inactive: 0.908. Under GCAUGUUAAGGAGACUCAGTT against Golph3 stands inactive: -0.706; under GGUGUCAGCGAAAAGCAGUTT against Ring1, inactive: -1.25.
